From paper PMC4840434, “The interactome of Streptococcus pneumoniae and its bacteriophages show highly specific patterns of interactions among bacteria and their phages” (Scientific Reports, 2016)
No constants are given. Whether binding was seen depends on the method and setting. Some binding calls cover weakened binding; strength is not graded here.

Biological target: T1, Cp-1 Cpl1, Lysozyme (phage Cp-1 of S. pneumoniae) (UniProt P15057)
T1 sequence: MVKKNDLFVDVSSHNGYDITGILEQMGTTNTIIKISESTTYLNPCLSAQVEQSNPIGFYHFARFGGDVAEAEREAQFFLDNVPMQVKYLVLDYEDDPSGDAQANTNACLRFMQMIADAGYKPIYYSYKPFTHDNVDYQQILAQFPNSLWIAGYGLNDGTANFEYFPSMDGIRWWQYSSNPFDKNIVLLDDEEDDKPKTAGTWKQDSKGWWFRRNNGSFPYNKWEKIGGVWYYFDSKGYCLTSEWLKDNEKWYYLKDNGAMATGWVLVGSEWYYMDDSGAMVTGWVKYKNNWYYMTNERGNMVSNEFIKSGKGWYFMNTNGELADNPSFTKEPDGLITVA
Experiment: two-hybrid; yeast two-hybrid array screen: Cp-1 and Dp-1 baits in pDEST32 against 1,704 S. pneumoniae TIGR4 ORF preys in pDEST22; strength by 3-AT up to 50 mM (3AT score = 3ATmax - 3ATbackground)

B1: SP_1208, uridine kinase (LuMPIS construct) (natural protein, S. pneumoniae TIGR4, UniProt P67413 1-212, looked up)
chain: MQNRPIIIGVTGGSGGGKTSVSRAILSHFPDEKISMIEHDSYYKDQSHLTFEERVKTNYDHPFAFDTDLMIEQIKELLAGRPVDIPTYDYTEHTRSSKTYRQEPQDVFIVEGILVLEDKRLRDLMDIKIFVDTDDDVRIIRRIKRDMEERGRSLDSVINQYLGVVKPMYHQFIESTKRYADIVIPEGVSNTVAIDLLTTKIAKILEEARNSK
notes: SP_1208 uridine kinase, S. pneumoniae TIGR4; ORF in a Gateway LuMPIS vector; source: HEK cells, raw protein extract
With B1 the binding was “binds”.
